Reference: US11187660B2, “Fluorescent probes for monitoring voltage by photo-induced electron transfer” (The Regents of the University of California, priority 2011, dated 2021)

Columns and labels:
HEK293 cells = assay: Membrane staining of HEK cells (epifluorescence and confocal microscopy); format: cell-based, human; conditions: for membrane localization / staining: 2 μM, 15 minutes at 37° C.
rat hippocampal neurons = assay: Optical detection of evoked action potentials in cultured hippocampal neurons; format: cell-based; conditions: 2 μM, 15 minutes
Protocol: To assay VF2.4.Cl's utility for monitoring neuronal activity, hippocampal neurons isolated from rats neonates were loaded with 2 μM VF2.4.Cl for 15 minutes, washed twice and imaged. […] Neurons were patched, current clamped, and injected with a small pulse (250-400 pA, 1-5 ms) to induce action potential firing. By using a high speed EMCCD camera, capable of sampling small regions of interest (ROI) at rates of approximately 2 kHz, enabled single trial optical detection of action potentials. An action potential with a total voltage change of ˜130 mV was well resolved optically and gave a ΔF/F of 24% with a signal-to-noise ratio of 16. […]
To assess whether VF probes can detect action potentials in single trials, we used cultured rat hippocampal neurons. […] The optical trace matched the physiology trace and gave about a 20% ΔF/F increase in fluorescence and a 16:1 signal-to-noise ratio (SNR) in a single trial. […]
Electrophysiological recordings of HEK293 cells and cultured neurons were performed with an Axopatch 200A or 200B amplifier (Molecular Devices) at room temperature. The signals were digitized with Digidata 1332A and recorded with pCLAMP 9 software (Molecular Devices) on a PC. […]
For voltage sensitivity measurements, regions of interest were drawn around clamped cells and the mean fluorescence measured in ImageJ or Slidebook. […]

Row | Structure (SMILES) | membrane localization / staining (HEK293 cells) | membrane staining (HEK293 cells; 100 nM) | membrane staining of neurons (rat hippocampal neurons)
1 | CCCCN(CCCC)c1ccc2cc(/C=C/c3cc[n+](CCCS(=O)(=O)[O-])cc3)ccc2c1 [di-4-ANEPPS, reference compound] | significant internalization; also recorded: significant uptake into internal membranes | – | –
2 | CN(C)c1ccc(/C=C/c2ccc(/C=C/c3ccc(-c4c5cc(Cl)c(=O)cc-5oc5cc(O)c(Cl)cc45)c(S(=O)(=O)O)c3)cc2)cc1 [VF2.1.Cl, 5-(4-(4-(dimethyllamino)styryl)styryl)-2-(2,7-dichloro-6-hydroxy-3-oxo-3H-xanthen-9-yl)benzenesulfonic acid] | – | bright staining of HEK cell membranes | –
3 | CCCCN(CCCC)c1ccc(/C=C/c2ccc(/C=C/c3ccc(-c4c5cc(Cl)c(=O)cc-5oc5cc(O)c(Cl)cc45)c(S(=O)(=O)O)c3)cc2)cc1 [VF2.4.Cl, 5-(4-(4-(dibutylamino)styryl)styryl)-2-(2,7-dichloro-6-hydroxy-3-oxo-3H-xanthen-9-yl)benzenesulfonic acid] | excellent membrane localization | – | strong membrane staining; also recorded: membrane localization; also recorded: bright cell staining limited to the cell membranes
4 | CCCCN(CCCC)c1ccc(/C=C/c2ccc(-c3c4cc(Cl)c(=O)cc-4oc4cc(O)c(Cl)cc34)c(S(=O)(=O)O)c2)cc1 [VF1.4.Cl, (E)-5-(4-(dibutylamino)styryl)-2-(2,7-dichloro-6-hydroxy-3-oxo-3H-xanthen-9-yl)benzenesulfonic acid] | excellent membrane localization | – | –

Entries after “also recorded” stand apart in the source; their conditions may differ.
